# Assay results published in PubChem BioAssay AID504834 (National Center for Advancing Translational Sciences (NCATS), 2011).
# The whole screen tested about 320,000 compounds, of which about 22,000 (6.9%) were called active. The inconclusive results got no clear call from the source; some entries with a clear call stand among them for comparison. The call rests on the fitted dose curve; in most records, active means well fitted inhibition curve with a large enough effect; inconclusive means small, poorly fitted or top-dose-only effect, or another doubt; inactive means no such curve, though single readings can be large or run the other way. A potency beside an inconclusive call is a rough fit, not a confirmed value.
# Test: Primary qHTS for delayed death inhibitors of the malarial parasite plastid, 96 hour incubation
# Conditions: P. falciparum luciferase reporter growth; series mostly up to 28.7 µM
# Method in brief: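 P. falciparum expressing integrated firefly luciferase grown in erythrocytes (2% hematocrit, 0.05% parasitemia final) with compounds for 96 hours at 37 C, 5% CO2. Growth inhibition read as loss of luminescence after adding luciferase detection reagent.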
# Potency means the concentration at half of the fitted maximal effect.
row,Structure (SMILES),Potency
1,Cc1ccc(CNC(=O)CN2C(=O)NC(C)(c3ccccc3Cl)C2=O)cc1 (stereo unspecified),"inconclusive: 18.5 µM [inhibitor, single point]"
2,COc1cccc(OCCNC(=O)Nc2cc(F)c(F)cc2Cl)c1,inactive
3,Cc1ccc(NC(=O)COC(=O)C2CC2)cc1Cl,inactive
4,O=C(NCc1ccccc1)C1CC(=O)N(c2ccc(OCC(=O)N3CCOCC3)cc2)C1 (stereo unspecified),inactive
5,O=C(N/N=C/c1ccccn1)c1ccc(NC(=O)c2ccccc2Cl)cc1,inactive
6,CCc1nc2ccc(C(=O)Nc3cccc(C(C)=O)c3)cc2nc1CC,"inconclusive: 18.5 µM [inhibitor, single point]"
7,CC1CC(C)(C)N2C(=O)C3(Nc4ccccc4S3)c3cccc1c32 (stereo unspecified),"inconclusive: 18.5 µM [inhibitor, single point]"
8,COC(=O)N/N=C/c1cn(Cc2ccc(Cl)cc2Cl)c2ccccc12,"inconclusive: 18.5 µM [inhibitor, single point]"
9,COc1ccccc1C1CN=NC12CCCc1ccccc1C2=O (stereo unspecified),active: 16.5 µM
10,Cc1cccc(CN2C(=O)c3ccccc3Sc3ccc(C(=O)NCCCN4CCOCC4)cc32)c1,"inconclusive: 18.5 µM [inhibitor, single point]"
11,COCCCn1c(SCC(=O)c2ccccc2)nc2ccccc2c1=O,"inconclusive: 2.62 µM [inhibitor, full curve]"
12,O=C(CN(C(=O)c1csnn1)c1ccc(F)cc1)NCc1ccc2c(c1)OCO2,inactive
13,COc1cc(OC)c(C(=O)NC23CC4CC(CC(C4)C2)C3)cc1OC,"inconclusive: 16.5 µM [inhibitor, single point]"
14,NNc1ccc(Cc2ccc(Cl)cc2Cl)nn1,"inconclusive: 11.7 µM [inhibitor, single point]"
15,CC(=O)Nc1ccc(NC(=O)C(C)OC(=O)c2cccc(S(=O)(=O)N3CCCCCC3)c2)cc1 (stereo unspecified),inactive
16,Cc1cc(C)n2nc(CC(=O)NC3CCCCCCC3)nc2n1,"inconclusive: 18.5 µM [inhibitor, single point]"
17,COC(=O)c1nnn(CC(=O)NC(=O)Nc2cccc(Cl)c2C)c1C(=O)OC,"inconclusive: 18.5 µM [inhibitor, single point]"
18,COc1ccc(N(Cc2ccccc2)S(=O)(=O)c2cccc(C(=O)NCC3CCCO3)c2)cc1 (stereo unspecified),"inconclusive: 4.15 µM [inhibitor, single point]"
19,Cc1[nH]c2ccccc2c1Cc1nnc(SCC(=O)NCc2ccco2)o1,"inconclusive: 1.04 µM [inhibitor, full curve, poor fit]"
20,Cc1ccc(C(C(=O)NCC2CCCO2)N(Cc2ccccc2)C(=O)c2ccc(-c3ccccc3)[nH]2)o1 (stereo unspecified),"inconclusive: 1.65 µM [inhibitor, full curve]"
21,CCOC(=O)C1/C(=N\O)CC(C)(O)C(C(=O)OCC)C1c1ccc(N(C)C)cc1 (stereo unspecified),"inconclusive: 5.22 µM [inhibitor, partial curve, poor fit]"
22,CNC(=O)c1cc2cc(OC)ccc2oc1=O,inactive
23,CC(=O)Nc1ccc(S(=O)(=O)NCC2CCC(C(=O)NCCC3=CCCCC3)CC2)cc1 (stereo unspecified),"inconclusive: 14.7 µM [inhibitor, partial curve, poor fit]"

row,Structure (SMILES),Potency
1,CCc1nc(SCC(=O)c2cccs2)c2oc3ccccc3c2n1,inactive
2,COc1ccc(Br)cc1/C=N/n1c(C)nc2ccccc2c1=O,"inconclusive: 18.5 µM [inhibitor, single point]"
3,O=C(CCC(=O)N1CCSc2ccccc21)NCCc1ccccc1,"inconclusive: 0.928 µM [inhibitor, partial curve, poor fit]"
4,O=C(/C=C/c1ccccc1)N1CCOCC1,active: 3.29 µM
5,COc1ccc(CNC(=O)C2CCC(CNS(=O)(=O)c3ccc(C)cc3)CC2)cc1 (stereo unspecified),inactive
6,Nc1ncc(N=Nc2cc(C(=O)O)ccc2Cl)s1,"inconclusive: 9.28 µM [inhibitor, single point]"
7,O=C(c1ccc2c(c1)OCCO2)C1CCN(C(=O)c2ccc(F)cc2)CC1,inactive
8,COc1ccc(NC(=O)CSCC(=O)N(C)CCOc2ccc(Cl)cc2)cc1,"inconclusive: 18.5 µM [inhibitor, single point]"
9,O/C(=C\c1nc2ccccc2nc1/C=C(\O)c1ccccc1)c1ccccc1,inactive
10,O=C(Nc1ccc2ncccc2c1)c1ccccc1Br,inactive
11,O=C(C1=C(O)C(=O)N(c2ncccn2)C1c1cccc(Cl)c1)c1ccco1 (stereo unspecified),inactive
12,O=C(CNCCC1=CCCCC1)Nc1ccccc1N1CCCCCC1,"inconclusive: 18.5 µM [inhibitor, single point]"
13,Cc1ccc(S(=O)(=O)N2CCN(C(=O)c3ccc(S(=O)(=O)N4CCCC4)cc3)CC2)cc1,active: 7.38 µM
14,CCCCCn1c(=O)[nH]c2cc(C(=O)NCCCN3CCC(C)CC3)ccc2c1=O,"inconclusive: 0.0037 µM [inhibitor, full curve, poor fit]"
15,CC(=O)Nc1ccc(NC(=O)CSc2nnc(NC(=O)c3ccco3)s2)cc1,inactive
16,Cc1noc(C)c1COc1ccc(C(=O)NCCc2ccc(S(N)(=O)=O)cc2)cc1,"inconclusive: 6.57 µM [inhibitor, partial curve]"
17,CC(C)NC(=O)c1ccccc1NC(=O)Cc1ccc([N+](=O)[O-])cc1,"inconclusive: 0.586 µM [inhibitor, full curve, poor fit]"
18,c1ccc(-c2ccccc2OCCCCN2CCCCC2)cc1,inactive
19,COC(=O)c1ccccc1S(=O)(=O)Nc1ccc2cn[nH]c2c1,"inconclusive: 18.5 µM [inhibitor, single point]"
20,COc1ccc(N(C(=O)Cn2nnc(-c3ccc(Cl)cc3)n2)C(C(=O)NCC2CCCO2)c2ccncc2)cc1 (stereo unspecified),"inconclusive: 3.29 µM [inhibitor, partial curve, poor fit]"
21,CCN1C(=O)C2(C(C#N)=C(N)Oc3cc(C)oc(=O)c32)c2ccccc21 (stereo unspecified),inactive
22,COc1ccccc1-c1nnc(-c2ccc(N3CCOCC3)cc2)o1,active: 1.65 µM
23,COC(CN(C(=O)CCl)C(C(=O)NC1CCCCC1)c1ccccc1C)OC (stereo unspecified),"inconclusive: 18.5 µM [inhibitor, single point]"

# Sorted by formula weight (largest number first): part of the list above
row,Structure (SMILES),Potency
16,Cc1noc(C)c1COc1ccc(C(=O)NCCc2ccc(S(N)(=O)=O)cc2)cc1,"inconclusive: 6.57 µM [inhibitor, partial curve]"
8,COc1ccc(NC(=O)CSCC(=O)N(C)CCOc2ccc(Cl)cc2)cc1,"inconclusive: 18.5 µM [inhibitor, single point]"
15,CC(=O)Nc1ccc(NC(=O)CSc2nnc(NC(=O)c3ccco3)s2)cc1,inactive
2,COc1ccc(Br)cc1/C=N/n1c(C)nc2ccccc2c1=O,"inconclusive: 18.5 µM [inhibitor, single point]"
9,O/C(=C\c1nc2ccccc2nc1/C=C(\O)c1ccccc1)c1ccccc1,inactive
12,O=C(CNCCC1=CCCCC1)Nc1ccccc1N1CCCCCC1,"inconclusive: 18.5 µM [inhibitor, single point]"
21,CCN1C(=O)C2(C(C#N)=C(N)Oc3cc(C)oc(=O)c32)c2ccccc21 (stereo unspecified),inactive
17,CC(C)NC(=O)c1ccccc1NC(=O)Cc1ccc([N+](=O)[O-])cc1,"inconclusive: 0.586 µM [inhibitor, full curve, poor fit]"
19,COC(=O)c1ccccc1S(=O)(=O)Nc1ccc2cn[nH]c2c1,"inconclusive: 18.5 µM [inhibitor, single point]"
18,c1ccc(-c2ccccc2OCCCCN2CCCCC2)cc1,inactive
6,Nc1ncc(N=Nc2cc(C(=O)O)ccc2Cl)s1,"inconclusive: 9.28 µM [inhibitor, single point]"
4,O=C(/C=C/c1ccccc1)N1CCOCC1,active: 3.29 µM
